Laboratory results taken from patent US20150182631A1, “SYSTEM FOR […]-BASED ACTIVE INGREDIENTS” (Centre National De La Recherche Scientifique-CNRS, priority 2012, published 2015).

Assay: Confinement of fluorescein in the lectin cavity
Conditions: for confinement rate (fluorescein/protein ratio): protein 15 μM, fluorescein 10 mM, 11 independent experiments
Protocol: The confinement experiments are carried out by incubating the wild-type protein (XCL) or the mutants (A38C) with the molecule to be tested. In order to carry out the control experiments with the mutant A38C, an oxidation step is carried out in the presence of GSSG in a phosphate buffer 50 mM, 100 mM NaCl, pH 7.2, OVN. The GSSG is then eliminated on a PD-10 sephadex G-25M column (GE Healthcare) pre-balanced in a phosphate buffer 50 mM, 100 mM NaCl, pH 8.5. The eluate is concentred at 1 ml on Vivaspin 15R 30,000 MWCO (Sartorius stedim). A batch of A38C is reduced to TCEP (under argon) with adding of NaOH for a final pH of 8.5. The proof of concept for the confinement was carried out with fluorescein at a concentration of 10 mM. The incubation is carried out for 1h at 25° C. in the phosphate buffer 50 mM, 100 mM NaCl. For the reduced mutant A38C another step of oxidation is carried out with GSSG, OVN. The free fluorescein is eliminated on a PD-10 sephadex G-25M column (GE Healthcare). The sample is then concentrated on Vivaspin 15R 30,000 MWCO (Sartorius stedim). […] The quantity of fluorescein is measured by using an absorption coefficient of e511 nm=75,000 cm^−1 M^−1. The concentrations of XCL and of A38C after the confinement are calculated with e278 nm=[…]. The percentage of confinement is calculated by forming the ratio of the fluorescein/protein concentrations.
In the case with XCL, the inventors incubated the protein (15 μM) with fluorescein (10 mM) and then separated the protein from the non-confined molecules of fluorescein by two successive gel filtration columns. Beforehand, the inventors verified that if these two columns on the fluorescein solution are carried out at 10 mM, no residual free fluorescein is detected. The fluorescein detected during the confinement is therefore necessarily linked to the protein or contained by the latter. […]
After this confinement steps and the elimination of the free fluorescein, the respective concentrations in fluorescein and in protein are determined via UV absorbance at 511 nm and at 280 nm. […]

Molecule | confinement rate (fluorescein/protein ratio) [%] | increase of the rate of confinement versus XCL (A38C in oxidised form after confinement)
XCL: Xerocomus chrysenteron lectin, fungal sporocarp lectin forming a tetramer with central cavity, SEQ ID NO: 1 (protein, Xerocomus chrysenteron) MSYSITLRVYQTNRDRGYFSIVEKTVWHFANGGTWSEANGAHTLTQGGSGTSGVLRFLSTKGERITVAVGVHNYKRWCDVVTGLKPDETALVINPQYYNNGGRDYVREKQLAEYSVTSAIGTKVEVVYTVAEGNNLEANVIFS | 9 | –
A38C: XCL variant with alanine 38 replaced by cysteine, SEQ ID NO: 2; A38R reduced before confinement, A38NR not reduced, A38Cox oxidised (protein, Variant A38C, A38R reduced before confinement, A38NR not reduced, A38Cox oxidised) MSYSITLRVYQTNRDRGYFSIVEKTVWHFANGGTWSECNGAHTLTQGGSGTSGVLRFLSTKGERITVAVGVHNYKRWCDVVTGLKPDETALVINPQYYNNGGRDYVREKQLAEYSVTSAIGTKVEVVYTVAEGNNLEANVIFS | 14 | multiply the rate of confinement by two
